Measurements taken from patent US20250027945A1.
Results are given in words; binding and its absence hold for the method and conditions named. For part of these data: Binding can be weak; no strength is given.

Amino acid sequences for entries named in this document (tags omitted). A change or cut given only in a name is not applied to a line headed by its entry.
UniProt P34925: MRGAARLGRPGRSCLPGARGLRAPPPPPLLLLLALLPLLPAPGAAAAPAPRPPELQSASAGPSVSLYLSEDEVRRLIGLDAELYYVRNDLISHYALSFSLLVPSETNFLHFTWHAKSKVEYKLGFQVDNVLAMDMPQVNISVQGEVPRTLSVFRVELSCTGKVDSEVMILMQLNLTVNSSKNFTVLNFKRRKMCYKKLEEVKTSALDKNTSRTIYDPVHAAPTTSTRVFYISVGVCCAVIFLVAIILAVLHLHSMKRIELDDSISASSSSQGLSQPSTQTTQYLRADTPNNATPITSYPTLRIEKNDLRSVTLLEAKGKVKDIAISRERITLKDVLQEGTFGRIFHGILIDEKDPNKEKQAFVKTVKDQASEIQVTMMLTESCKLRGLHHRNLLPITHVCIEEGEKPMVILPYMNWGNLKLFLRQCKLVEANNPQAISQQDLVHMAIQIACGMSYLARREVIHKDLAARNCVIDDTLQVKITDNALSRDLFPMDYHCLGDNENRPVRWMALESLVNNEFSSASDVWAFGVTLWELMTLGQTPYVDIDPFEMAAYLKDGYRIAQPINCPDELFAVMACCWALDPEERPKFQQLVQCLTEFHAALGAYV

Key:
[1] = biological target: human RYK on the surface of human tumor cell lines (human) (UniProt P34925); assay: flow cytometry, K562 cells (CML); grade from MFIR
[2] = biological target: human RYK on the surface of human tumor cell lines (human) (UniProt P34925); assay: flow cytometry, A549 cells (lung); grade from MFIR
[3] = biological target: human RYK on the surface of human tumor cell lines (human) (UniProt P34925); assay: flow cytometry, H446 cells (lung); grade from MFIR
[4] = biological target: human RYK on the surface of human tumor cell lines (human) (UniProt P34925); assay: flow cytometry, H460 cells (lung); grade from MFIR
[5] = biological target: human RYK on the surface of human tumor cell lines (human) (UniProt P34925); assay: flow cytometry, HT144 cells (skin); grade from MFIR
[6] = biological target: human RYK on the surface of human tumor cell lines (human) (UniProt P34925); assay: flow cytometry, HT29 cells (colon); grade from MFIR
[7] = biological target: human RYK on the surface of human tumor cell lines (human) (UniProt P34925); assay: flow cytometry on tumor cell lines, 2-D11-Alexa647
[8] = biological target: human RYK on the surface of human tumor cell lines (human) (UniProt P34925); assay: flow cytometry, HS683 cells (brain); grade from MFIR
[9] = biological target: human RYK on the surface of human tumor cell lines (human) (UniProt P34925); assay: flow cytometry, MINO cells (mantle); grade from MFIR
[10] = biological target: human RYK on the surface of human tumor cell lines (human) (UniProt P34925); assay: flow cytometry, T24 cells (bladder); grade from MFIR
[11] = biological target: human RYK on the surface of human tumor cell lines (human) (UniProt P34925); assay: flow cytometry, BT549 cells (breast); grade from MFIR
[12] = biological target: human RYK on the surface of human tumor cell lines (human) (UniProt P34925); assay: flow cytometry, SKBR3 cells (breast); grade from MFIR
[13] = biological target: human RYK on the surface of human tumor cell lines (human) (UniProt P34925); assay: flow cytometry, T47-D cells (breast); grade from MFIR
[14] = biological target: human RYK on the surface of human tumor cell lines (human) (UniProt P34925); assay: flow cytometry, NCI H226 cells (lung); grade from MFIR
[15] = biological target: human RYK on the surface of human tumor cell lines (human) (UniProt P34925); assay: flow cytometry, SH-SY5Y cells (brain); grade from MFIR
[16] = biological target: human RYK on the surface of human tumor cell lines (human) (UniProt P34925); assay: flow cytometry on cell lines, 10 ug/ml 2-D11-Alexa647
[17] = biological target: human RYK on the surface of human tumor cell lines (human) (UniProt P34925); assay: flow cytometry, HS-578T cells (breast); grade from MFIR
[18] = biological target: human RYK on the surface of human tumor cell lines (human) (UniProt P34925); assay: flow cytometry, OVCAR4 cells (ovarian); grade from MFIR
[19] = biological target: human RYK on the surface of human tumor cell lines (human) (UniProt P34925); assay: flow cytometry, CAPAN-1 cells (pancreas); grade from MFIR
[20] = biological target: human RYK on the surface of human tumor cell lines (human) (UniProt P34925); assay: flow cytometry, COLO 829 cells (melanoma); grade from MFIR
[21] = biological target: human RYK on the surface of human tumor cell lines (human) (UniProt P34925); assay: flow cytometry, A673 cells (Ewings sarcoma); grade from MFIR
[22] = biological target: human RYK on the surface of human tumor cell lines (human) (UniProt P34925); assay: flow cytometry of viable tumor cell lines, 10 ug/ml 2-D11-Alexa647, 20 min on ice, against isotype control
mRYK with human Leader = assay: dot blot of recombinant RYK proteins (rabbit IgG tag) on nylon membrane, probed with the mAb, anti-mouse IgG-HRP
[23] = biological target: human RYK on the surface of human tumor cell lines (human) (UniProt P34925); assay: flow cytometry of dissociated primary triple-negative breast cancer PDX cells M0026 (T1), fluorochrome-conjugated 2-D11

B1: 2-D11 anti-human RYK mAb (antibody, V domains shown)
VH: QVQLKESGPGLVAPSQSLSITCSVSGFSLNDYGVNWVRQPPGKDLEWLGMIWGDGVTEYNSTLKSRLSISKDNSKSQVFLKMNNLQTEDTARYYCVRQGSGVWFAHWGQGTLVSVSS
VL: DVLVTQTPLSLPVSLGDQASISCRSSQTIVHSNGNTYLEWYLQKPGQSPKLLIYKVSNRFSGVPDRFSGSGSGTDFTLKISRVEAEDLGIYYCFQGSHVPYTFGGGTKLEIK
**Q.** B1 was tested. Which binding [1] did it give?
**A.** binds

**Q.** And the binding [2]?
**A.** binds

**Q.** And the binding [3]?
**A.** binds

**Q.** What about the binding [4] of the same binder?
**A.** binds

**Q.** And the binding [5]?
**A.** binds

**Q.** And the binding [6]?
**A.** binds

**Q.** What about the binding [7] of the same binder?
**A.** binds

**Q.** And the binding [8]?
**A.** binds

**Q.** What about the binding [9] of the same binder?
**A.** binds

**Q.** And the binding [10]?
**A.** binds

**Q.** And the binding [11]?
**A.** binds

**Q.** And the binding [12]?
**A.** binds

**Q.** And the binding [13]?
**A.** binds

**Q.** What about the binding [14] of the same binder?
**A.** binds

**Q.** And the binding [15]?
**A.** binds

**Q.** And the binding [16]?
**A.** binds

**Q.** What about the binding [17] of the same binder?
**A.** binds

**Q.** What about the binding [18] of the same binder?
**A.** binds

**Q.** And the binding [19]?
**A.** binds

**Q.** And the binding [20]?
**A.** binds

**Q.** What about the binding [21] of the same binder?
**A.** binds

**Q.** What about the binding [22] of the same binder?
**A.** binds

**Q.** And the binding (mRYK with human Leader)?
**A.** no binding

**Q.** What about the binding [23] of the same binder?
**A.** binds
